SMILES strings stand for the structures.

The series concerns MDA-MB-231 cells. The experiment in a line: 17K human cDNA microarray screen for genes regulated by KA. The class given is cell-based. The settings on record: kamebakaurin 10 μg/ml, 5 hours.

In turn, `C=C1C(=O)[C@@]23[C@H](O)C[C@@H]4C(C)(C)CC[C@H](O)[C@@]4(CO)[C@@H]2CC[C@@H]1[C@H]3O` [kamebakaurin, Kamebakaurin] had a genes down-regulated of 295 and a genes up-regulated of 333.

Values taken from patent US20080248024A1, “THERAPEUTIC AGENT FOR CANCER, INFLAMMATION, AND AUTO-IMMUNE DISEASE CONTAINING INHIBITOR OF ZINC FINGER PROTEIN 91” (Korea Research Institute of Bioscience and Biotechnology, priority 2007, published 2008).
